Results as given in patent publication US11192894B2, “Cell impermeable coelenterazine analogues” (PROMEGA CORPORATION, priority 2016, dated 2021).

Experiment: Autoluminescence of substrate in NanoGlo buffer
Conditions: relative value, furimazine set to 1
For `O=c1c(Cc2ccc(Cl)c(OCCCCCCS(=O)(=O)[O-])c2)nc2c(Cc3ccccc3)[nH]c(-c3ccccc3)cn1-2.[Na+]` [JRW-0766, sodium 6-(5-((8-benzyl-3-oxo-6-phenyl-3,7-dihydroimidazo[1,2-a]pyrazin-2-yl)methyl)-2-chlorophenoxy)hexane-1-sulfonate], the “AutoLuminescence in NanoGlo Buffer” value was 1. With `NCCCCCCOc1ccc(Cc2nc3c(Cc4ccccc4)[nH]c(-c4ccccc4)cn-3c2=O)cc1F` [JRW-0801, 2-(4-((6-aminohexyl)oxy)-3-fluorobenzyl)-8-benzyl-6-phenylimidazo[1,2-a]pyrazin-3(7H)-one] the “AutoLuminescence in NanoGlo Buffer” value was 0.6. In the case of `O=c1c(Cc2ccc(OCCCCCCS(=O)(=O)[O-])c(F)c2)nc2c(Cc3ccccc3)[nH]c(-c3ccccc3)cn1-2.[Na+]` [JRW-0769, sodium 6-(4-((8-benzyl-3-oxo-6-phenyl-3,7-dihydroimidazo[1,2-a]pyrazin-2-yl)methyl)-2-fluorophenoxy)hexane-1-sulfonate], the “AutoLuminescence in NanoGlo Buffer” value is reported as 1. With `O=c1c(Cc2cccc(OCCCS(=O)(=O)[O-])c2)nc2c(Cc3ccccc3)[nH]c(-c3ccccc3)cn1-2.[Na+]` [JRW-0713, sodium 3-(3-((8-benzyl-3-oxo-6-phenyl-3,7-dihydroimidazo[1,2-a]pyrazin-2-yl)methyl)phenoxy)propane-1-sulfonate] the “AutoLuminescence in NanoGlo Buffer” value was 1.3. For `CC(C)(C)OC(=O)c1cccc(-c2cn3c(=O)c(Cc4ccco4)nc-3c(Cc3ccccc3)[nH]2)c1` [JRW-0755, tert-butyl 3-(8-benzyl-2-(furan-2-ylmethyl)-3-oxo-3,7-dihydroimidazo[1,2-a]pyrazin-6-yl)benzoate], the “AutoLuminescence in NanoGlo Buffer” value was 0.6. With `O=C(O)CCCCCOc1cccc(Cc2nc3c(Cc4ccccc4)[nH]c(-c4ccccc4)cn-3c2=O)c1` [JRW-0684, 6-(3-((8-benzyl-3-oxo-6-phenyl-3,7-dihydroimidazo[1,2-a]pyrazin-2-yl)methyl)phenoxy)hexanoic acid] the “AutoLuminescence in NanoGlo Buffer” value was 1.2. With `O=c1c(Cc2ccc(OCCCCCCS(=O)(=O)O)c(Cl)c2)nc2c(Cc3ccccc3)[nH]c(-c3cccc(O)c3)cn1-2` [JRW-0805, 6-(4-((8-benzyl-6-(3-hydroxyphenyl)-3-oxo-3,7-dihydroimidazo[1,2-a]pyrazin-2-yl)methyl)-2-chlorophenoxy)hexane-1-sulfonic acid] the “AutoLuminescence in NanoGlo Buffer” value was 2. In the case of `NCCCCCCOc1cccc(Cc2nc3c(Cc4ccccc4)[nH]c(-c4ccccc4)cn-3c2=O)c1` [TAK-0039, 2-(3-((6-aminohexyl)oxy)benzyl)-8-benzyl-6-phenylimidazo[1,2-a]pyrazin-3(7H)-one], the “AutoLuminescence in NanoGlo Buffer” value is reported as 0.6. In the case of `CC(C)(C)OC(=O)CCCCCOc1ccc(Cc2nc3c(Cc4ccccc4)[nH]c(-c4ccccc4)cn-3c2=O)cc1Cl` [JRW-0725, tert-butyl 6-(4-((8-benzyl-3-oxo-6-phenyl-3,7-dihydroimidazo[1,2-a]pyrazin-2-yl)methyl)-2-chlorophenoxy)hexanoate], the “AutoLuminescence in NanoGlo Buffer” value is reported as 0.4. For `O=c1c(Cc2cccc(OCCCCCCS(=O)(=O)[O-])c2)nc2c(Cc3ccccc3)[nH]c(-c3ccccc3)cn1-2.[Na+]` [JRW-0703, sodium 6-(3-((8-benzyl-3-oxo-6-phenyl-3,7-dihydroimidazo[1,2-a]pyrazin-2-yl)methyl)phenoxy)hexane-1-sulfonate], the “AutoLuminescence in NanoGlo Buffer” value was 0.8. In the case of `CC(=O)N[C@@H](CC(=O)O)C(=O)N[C@@H](CC(=O)O)C(=O)N[C@@H](CC(=O)O)C(=O)NCCCCCCOc1cccc(Cc2nc3c(Cc4ccccc4)[nH]c(-c4ccccc4)cn-3c2=O)c1` [JRW-0741, (S)-3-acetamido-4-(((S)-1-(((S)-1-((6-(3-((8-benzyl-3-oxo-6-phenyl-3,7-dihydroimidazo[1,2-a]pyrazin-2-yl)methyl)phenoxy)hexyl)amino)-3-carboxy-1-oxopropan-2-yl)amino)-3-carboxy-1-oxopropan-2-yl)amino)-4-oxobutanoic acid], the “AutoLuminescence in NanoGlo Buffer” value is reported as 1.2. With `O=c1c(Cc2ccco2)nc2c(Cc3ccccc3)[nH]c(-c3ccccc3)cn1-2` [Furimazine, reference compound] the “AutoLuminescence in NanoGlo Buffer” value was 1. In the case of `CC(C)(C)OC(=O)CCCOc1cccc(Cc2nc3c(Cc4ccccc4)[nH]c(-c4ccccc4)cn-3c2=O)c1` [JRW-0714, tert-butyl 4-(3-((8-benzyl-3-oxo-6-phenyl-3,7-dihydroimidazo[1,2-a]pyrazin-2-yl)methyl)phenoxy)butanoate], the “AutoLuminescence in NanoGlo Buffer” value is reported as 0.5. With `CC(=O)N[C@@H](CC(=O)O)C(=O)N[C@@H](CC(=O)O)C(=O)N[C@@H](CC(=O)O)C(=O)NCCCCCCOc1ccc(Cc2nc3c(Cc4ccccc4)[nH]c(-c4ccccc4)cn-3c2=O)cc1F` [JRW-0806, (S)-3-acetamido-4-(((S)-1-(((S)-1-((6-(4-((8-benzyl-3-oxo-6-phenyl-3,7-dihydroimidazo[1,2-a]pyrazin-2-yl)methyl)-2-fluorophenoxy)hexyl)amino)-3-carboxy-1-oxopropan-2-yl)amino)-3-carboxy-1-oxopropan-2-yl)amino)-4-oxobutanoic acid] the “AutoLuminescence in NanoGlo Buffer” value was 0.7. For `O=c1c(Cc2ccc(OCCCCCCS(=O)(=O)[O-])c(Cl)c2)nc2c(Cc3ccccc3)[nH]c(-c3ccccc3)cn1-2.[Na+]` [JRW-0728, sodium 6-(4-((8-benzyl-3-oxo-6-phenyl-3,7-dihydroimidazo[1,2-a]pyrazin-2-yl)methyl)-2-chlorophenoxy)hexane-1-sulfonate], the “AutoLuminescence in NanoGlo Buffer” value was 0.8. For `O=c1c(Cc2ccc(OCCCCCCCCS(=O)(=O)[O-])c(Cl)c2)nc2c(Cc3ccccc3)[nH]c(-c3ccccc3)cn1-2.[Na+]` [JRW-0761, sodium 8-(4-((8-benzyl-3-oxo-6-phenyl-3,7-dihydroimidazo[1,2-a]pyrazin-2-yl)methyl)-2-chlorophenoxy)octane-1-sulfonate], the “AutoLuminescence in NanoGlo Buffer” value was 4.6. With `O=C(O)CCCCCCCOc1cccc(Cc2nc3c(Cc4ccccc4)[nH]c(-c4ccccc4)cn-3c2=O)c1` [JRW-0722, 8-(3-((8-benzyl-3-oxo-6-phenyl-3,7-dihydroimidazo[1,2-a]pyrazin-2-yl)methyl)phenoxy)octanoic acid] the “AutoLuminescence in NanoGlo Buffer” value was 0.9. In the case of `O=C(O)c1ccc(-c2cn3c(=O)c(Cc4ccco4)nc-3c(Cc3ccccc3)[nH]2)cc1` [JRW-0790, 4-(8-benzyl-2-(furan-2-ylmethyl)-3-oxo-3,7-dihydroimidazo[1,2-a]pyrazin-6-yl)benzoic acid], the “AutoLuminescence in NanoGlo Buffer” value is reported as 9. For `CC(C)(C)OC(=O)CCCCCCCOc1cccc(Cc2nc3c(Cc4ccccc4)[nH]c(-c4ccccc4)cn-3c2=O)c1` [JRW-0719, tert-butyl 8-(3-((8-benzyl-3-oxo-6-phenyl-3,7-dihydroimidazo[1,2-a]pyrazin-2-yl)methyl)phenoxy)octanoate], the “AutoLuminescence in NanoGlo Buffer” value was 0.4. In the case of `O=c1c(Cc2ccc(OCCCCCCBr)c(Cl)c2)nc2c(Cc3ccccc3)[nH]c(-c3ccccc3)cn1-2` [JRW-0720, 8-benzyl-2-(4-((6-bromohexyl)oxy)-3-chlorobenzyl)-6-phenylimidazo[1,2-a]pyrazin-3(7H)-one], the “AutoLuminescence in NanoGlo Buffer” value is reported as 0.4. With `O=c1c(Cc2ccc(OCCCCCCS(=O)(=O)OCC(Cl)(Cl)Cl)c(Cl)c2)nc2c(Cc3ccccc3)[nH]c(-c3ccccc3)cn1-2` [JRW-0665, 2,2,2-trichloroethyl 6-(4-((8-benzyl-3-oxo-6-phenyl-3,7-dihydroimidazo[1,2-a]pyrazin-2-yl)methyl)-2-chlorophenoxy)hexane-1-sulfonate] the “AutoLuminescence in NanoGlo Buffer” value was 0.4. For `O=c1c(Cc2ccc(OCCCCCCCCCCS(=O)(=O)[O-])c(Cl)c2)nc2c(Cc3ccccc3)[nH]c(-c3ccccc3)cn1-2.[Na+]` [JRW-0765, sodium 10-(4-((8-benzyl-3-oxo-6-phenyl-3,7-dihydroimidazo[1,2-a]pyrazin-2-yl)methyl)-2-chlorophenoxy)decane-1-sulfonate], the “AutoLuminescence in NanoGlo Buffer” value was 1.1. In the case of `CC(C)(C)OC(=O)CCCCCOc1cccc(Cc2nc3c(Cc4ccccc4)[nH]c(-c4ccccc4)cn-3c2=O)c1` [JRW-0682, tert-butyl 6-(3-((8-benzyl-3-oxo-6-phenyl-3,7-dihydroimidazo[1,2-a]pyrazin-2-yl)methyl)phenoxy)hexanoate], the “AutoLuminescence in NanoGlo Buffer” value is reported as 0.3. With `O=c1c(Cc2cc(F)c(OCCCCCCS(=O)(=O)[O-])c(F)c2)nc2c(Cc3ccccc3)[nH]c(-c3ccccc3)cn1-2.[Na+]` [JRW-0771, sodium 6-(4-((8-benzyl-3-oxo-6-phenyl-3,7-dihydroimidazo[1,2-a]pyrazin-2-yl)methyl)-2,6-difluorophenoxy)hexane-1-sulfonate] the “AutoLuminescence in NanoGlo Buffer” value was 1.2. In the case of `O=c1c(Cc2cccc(OCCCCCCBr)c2)nc2c(Cc3ccccc3)[nH]c(-c3ccccc3)cn1-2` [JRW-0692, 8-benzyl-2-(3-((6-bromohexyl)oxy)benzyl)-6-phenylimidazo[1,2-a]pyrazin-3(7H)-one], the “AutoLuminescence in NanoGlo Buffer” value is reported as 0.6. In the case of `O=C(O)CCCOc1cccc(Cc2nc3c(Cc4ccccc4)[nH]c(-c4ccccc4)cn-3c2=O)c1` [JRW-0716, 4-(3-((8-benzyl-3-oxo-6-phenyl-3,7-dihydroimidazo[1,2-a]pyrazin-2-yl)methyl)phenoxy)butanoic acid], the “AutoLuminescence in NanoGlo Buffer” value is reported as 2.1.
